The assay is described as follows: qHTS Assay for Lipid Storage Modulators in Drosophila S3 Cells.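 On cell number change: cells counted by Cell Tracker Red CMTPX staining in the red channel.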 The note with it: BODIPY lipid droplet fluorescence, 18-24 h; for cell number change: measured here: cell count max response, cells fed with added oleic acid. The method in brief:
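Drosophila S3 cells got compounds at several concentrations plus oleic acid (400 uM solution). Laser-scanning cytometry with 488 nm excitation read lipid droplets at 500-530 nm and cells at 575-640 nm. Percent activity was relative to 20 uM Triacsin C.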
In general terms: Quantitative high-throughput screening tests each substance at several concentrations.

The mark [1] stands for this setting: measured here: lipid fluorescence (Fed channel) AC50, cells fed with added oleic acid.
The mark [2] stands for this setting: measured here: cell number channel AC50, cells fed with added oleic acid.

The list shows a part of the results. These are further read-outs of the screen, such as a control signal, another cell line or another target. No call is given for them. The list favours compounds with an active or inconclusive main result. Potencies come from curve fits of mixed quality, noted in brackets.

Regarding `COc1ccc(OC)c(N(CC(=O)O)S(=O)(=O)c2ccc(OC)c(OC)c2)c1`, the cell number change is 0.203%. In addition, the half-maximal activity concentration (AC50) under setting [1] is 1.84 µM [falling, full curve, poor fit]. Consider `COc1cccc(-c2nc(CS(=O)(=O)CC(=O)N3CCCCC3)c(C)o2)c1`, for which the cell number change was -8.57%. As to `c1ccc(-c2ccc(C3=Nn4c(nnc4-c4cc(-c5ccccc5)n[nH]4)SC3)cc2)cc1`, the cell number change was -25.3%. Also, the AC50 under setting [2] is 0.259 µM [rising, partial curve, poor fit]. For `O=C(Nc1cccc(C(F)(F)F)c1)Oc1ccccc1N1CCOCC1`, the cell number change is 7.87%. Still for that read-out and setting: the figure for `COC(=O)c1sccc1NC(=O)Nc1cccc(F)c1` is 45.3%.

As for `CCOc1ccc(N(CC(=O)N2CCN(Cc3ccccc3)CC2)S(C)(=O)=O)cc1`, the cell number change was 6.91%. The AC50 under setting [1] is 29.1 µM [rising, single point]. Turning to `COc1ccc(C(=O)c2c(C)c3ccccc3n2CC(O)CNC(C)C)cc1` (stereo unspecified), the cell number change is -28%. Also, the AC50 under setting [1] was 16.4 µM [falling, partial curve].

Regarding `CCN(CC)S(=O)(=O)c1cccc(NC(=O)CSc2nc3ccccc3[nH]2)c1`, the cell number change worked out at 0.791%. The AC50 under setting [2] is 6.51 µM [rising, single point]. For `CCc1ccc(OCCNc2cc(N3CCNC(C)C3)ccc2[N+](=O)[O-])cc1` (stereo unspecified), the cell number change is -81.1%. Under setting [2], the half-maximal activity concentration (AC50) is 7.31 µM [falling, partial curve]. Consider `CCCN(CCC)C(=S)Nc1cc(C(=O)OC)ccc1C(=O)OC`, for which the cell number change stood at 23.8%. In addition, under setting [1], the concentration at half-maximal activity (AC50) is 0.259 µM [rising, partial curve]. Consider `O=C(COc1ccccc1)N1CCc2ccccc21`, for which the cell number change is -9.01%. For the same molecule, the concentration at half-maximal activity (AC50) under setting [1] was 0.103 µM [rising, full curve, poor fit].

As to `O=C(CC1CCCCC1)N1CCC(c2nc(-c3ccc(S(=O)(=O)N4CCCC4)cc3)no2)CC1`, the cell number change is -15.8%. The half-maximal activity concentration (AC50) under setting [1] was 7.31 µM [falling, single point]. Regarding `COc1ccc2cc(C)c3nnc(SCc4cccnc4)n3c2c1`, the cell number change worked out at 76.7%. In addition, under setting [2], the AC50 was 20.6 µM [rising, single point]. Also, the AC50 under setting [1] was 23.1 µM [rising, single point]. `CC(C)OC(=O)CN1CCN(c2ccc(Cl)cc2)CC1`: the cell number change is -4.95%. For the same molecule, the half-maximal activity concentration (AC50) under setting [1] is 0.461 µM [falling, partial curve, poor fit].

Turning to `CCn1c(C)[n+](CCOCC[n+]2c(C)n(CC)c3cc(Cl)c(Cl)cc32)c2cc(Cl)c(Cl)cc21`, the cell number change was -5.99%. Also, the AC50 under setting [1] is 0.731 µM [falling, full curve].

Turning to `CN(CC(=O)Nc1ccccc1Br)C(=O)Cn1[nH]c(=O)c2ccccc2c1=O`, the cell number change came out at 8.78%. The half-maximal activity concentration (AC50) under setting [1] was 23.1 µM [rising, single point].

For `CSc1cccc(CNC(=O)C2CCC(=O)N(CC3CCCCC3)C2)c1` (stereo unspecified), the cell number change is -18.8%. Further, the AC50 under setting [1] was 0.731 µM [falling, single point]. `O=C(CSc1nnc(-c2ccc(Br)cc2)o1)Nc1cccc2ccccc12`: the cell number change is 65.9%. Moreover, the AC50 under setting [2] is 29.1 µM [rising, single point]. The AC50 under setting [1] was 0.731 µM [rising, partial curve, poor fit]. On to `CCC(C)NC(=O)c1cc(S(=O)(=O)N2CCCCC2)c[nH]1` (stereo unspecified), for which the cell number change was found to be 0.299%. Besides, the half-maximal activity concentration (AC50) under setting [1] was 6.51 µM [rising, partial curve, poor fit]. Consider `COc1ccc(N2CCN(Cc3cc(=O)oc4ccc(Cl)cc34)CC2)cc1`, for which the cell number change is 9.5%. As to `Cc1c2c(n3c(nc4ccccc43)c1C#N)N(c1ccccc1)CC2`, the cell number change worked out at 33.5%. Also, the half-maximal activity concentration (AC50) under setting [2] is 1.84 µM [rising, full curve]. Also, the AC50 under setting [1] was 4.61 µM [falling, single point]. As for `COCNc1nc(OCC#N)nc(N(C)C)n1`, the cell number change is -1.35%. For the molecule `O=C(O)c1cc(-c2ccco2)nn1-c1cccc(Cl)c1`, the cell number change was -21.2%. Besides, the concentration at half-maximal activity (AC50) under setting [2] is 0.00461 µM [falling, full curve, poor fit]. Besides, under setting [1], the AC50 was 0.00461 µM [falling, full curve, poor fit]. As for `O=C(CSc1nncn1-c1ccccc1)NCc1cccs1`, the cell number change came out at 7.76%. The half-maximal activity concentration (AC50) under setting [1] is 18.4 µM [rising, single point]. In the case of `Cc1c(NS(=O)(=O)c2ccc3[nH]c(=O)[nH]c3c2)c(=O)n(-c2ccccc2)n1C`, the cell number change was determined as 0.602%. Also, under setting [1], the concentration at half-maximal activity (AC50) was 29.1 µM [falling, single point]. `Cc1ccc(N2C(=O)N(CC(=O)Nc3cccc(Cl)c3)C(=O)C2C)cc1` (stereo unspecified): the cell number change was found to be 57%. For the same molecule, under setting [2], the AC50 is 16.4 µM [rising, single point].

With `Cc1n[nH]c(=O)c2c(NC(=O)COC(=O)Cc3c(F)cccc3Cl)oc(C)c12`, the cell number change came out at 56.2%. Besides, the AC50 under setting [2] is 0.366 µM [rising, full curve, poor fit]. Also, under setting [1], the AC50 is 0.58 µM [rising, partial curve, poor fit]. As to `CN(C(=O)COC(=O)c1cccc(S(=O)(=O)N2CCCCC2)c1)C1CCS(=O)(=O)C1` (stereo unspecified), the cell number change was 1.27%. Also, the AC50 under setting [1] was 0.184 µM [falling, full curve, poor fit].

`Brc1ccccc1Cn1c(-c2cncs2)nc2ccccc21`: the cell number change came out at 14.1%. On to `CCCCn1c(=O)[nH]c(=O)c2c1nc(-c1ccc([N+](=O)[O-])cc1)n2CC`, for which the cell number change is 13.1%. Also, the AC50 under setting [1] is 0.58 µM [rising, single point]. On to `CCN(CC(=O)Nc1c(F)cccc1F)C(=O)c1ccc(S(=O)(=O)N2CCCCCC2)cc1`, for which the cell number change was -25%.

As for `Cc1cccc(NC(=O)CSc2nnc(NC(=O)C3CC3)s2)c1C`, the cell number change was -7.26%.

As to `C/C(CC(=O)Nc1cccc(C(F)(F)F)c1)=N\NC(=O)c1cnccn1`, the cell number change came out at 6.09%. The concentration at half-maximal activity (AC50) under setting [1] is 6.51 µM [rising, single point]. On to `O=C1CCCCC1C(=O)c1cn(-c2ccc(Cl)c(Cl)c2)nn1` (stereo unspecified), for which the cell number change stood at 16.2%. For the same molecule, under setting [2], the half-maximal activity concentration (AC50) is 2.06 µM [rising, partial curve, poor fit]. Also, the concentration at half-maximal activity (AC50) under setting [1] is 2.06 µM [rising, partial curve, poor fit]. With `Cc1cc2cc(CN(CCCN3CCOCC3)C(=O)NC3CCCCC3)c(=O)[nH]c2cc1C`, the cell number change was found to be 133%. In addition, the AC50 under setting [2] is 3.26 µM [rising, partial curve]. For the same molecule, the AC50 under setting [1] is 5.17 µM [rising, partial curve]. Turning to `CS(=O)(=O)N(CC(=O)N1CCc2ccccc2C1)Cc1ccc(F)cc1`, the AC50 under setting [1] is 0.146 µM [falling, full curve]. For the molecule `O=C(Nc1ccccc1)N(C1=NCCC1)c1ccccc1`, the cell number change was determined as 27.3%. On to `CCCN(Cc1nnc(-c2ccccc2Cl)o1)C(=O)c1cc2ccccc2o1`, for which the cell number change came out at 106%. Besides, the concentration at half-maximal activity (AC50) under setting [2] is 5.17 µM [rising, partial curve].

In the case of `Cc1ccc(C(C(=O)NCc2ccccc2)N(Cc2ccco2)C(=O)c2snc(C(N)=O)c2N)o1` (stereo unspecified), the cell number change stood at 12.8%. On to `CN(C)c1nc(N2CCN(c3ccc(F)cc3)CC2)c(C#N)c(=O)o1`, for which, under setting [1], the AC50 was 0.58 µM [falling, single point].

In the case of `Cc1cccc(N2CCN(C(=O)c3ccc(CS(=O)(=O)c4ccccc4C)o3)CC2C)c1` (stereo unspecified), the cell number change is -32%. Besides, the half-maximal activity concentration (AC50) under setting [2] was 8.2 µM [falling, partial curve]. In addition, under setting [1], the concentration at half-maximal activity (AC50) is 16.4 µM [falling, partial curve]. As for `O=C(c1cc(COc2cccc3cnccc23)on1)N1CCCC(CCCO)C1` (stereo unspecified), the cell number change came out at 2.37%. Also, the concentration at half-maximal activity (AC50) under setting [2] is 1.64 µM [falling, partial curve]. The concentration at half-maximal activity (AC50) under setting [1] is 1.03 µM [falling, full curve]. In the case of `C=CCn1cccc(C(=O)Nc2ccc(SC)cc2)c1=O`, the concentration at half-maximal activity (AC50) under setting [1] was 1.3 µM [falling, full curve]. As to `N#Cc1ccc(CN2CCN(C(=O)c3ccc(S(=O)(=O)NCc4ccco4)cc3)CC2)cc1`, the cell number change was -15.2%. Further, the AC50 under setting [1] is 0.164 µM [falling, full curve, poor fit]. Regarding `O=C(CCc1ccc(S(=O)(=O)N2CCOCC2)cc1)NCCCN1CCCC1=O`, the cell number change is -4.46%.

For `COc1ccc(NC(=O)COc2ccc(C(=O)c3ccc(F)cc3)cc2)cc1S(N)(=O)=O`, the cell number change is 5.42%. For the same molecule, the AC50 under setting [1] is 0.146 µM [rising, single point].

In the case of `Cc1ccc(NC(=O)CSCC(=O)O)c(C)c1`, the cell number change is -47.6%. Also, under setting [2], the concentration at half-maximal activity (AC50) was 29.1 µM [falling, single point]. On to `CN(C(=O)CSc1nc2ccccc2c(=O)n1-c1ccc(F)cc1)C1CCS(=O)(=O)C1` (stereo unspecified), for which the cell number change is -6.26%. The half-maximal activity concentration (AC50) under setting [1] was 6.51 µM [falling, full curve]. With `CCCCSc1nnc(CCCCCNC(=O)OC(C)(C)C)o1`, the cell number change came out at 4.37%. The AC50 under setting [2] is 0.517 µM [falling, full curve, poor fit]. `CN(/C=C/C(=C/C=[N+](C)c1ccccc1)OCCCS(=O)(=O)[O-])c1ccccc1`: the cell number change was -47.9%. In addition, the concentration at half-maximal activity (AC50) under setting [2] is 4.11 µM [falling, full curve]. For the same molecule, the concentration at half-maximal activity (AC50) under setting [1] was 4.11 µM [falling, full curve]. Consider `Cc1ccc(N(C(=O)CNC(=O)c2cccs2)C(C(=O)NC2CCCC2)c2ccncc2)cc1` (stereo unspecified), for which the cell number change is -21.8%. Besides, the AC50 under setting [1] is 6.51 µM [rising, partial curve]. For the molecule `CC1Cc2cc(C(=O)O)ccc2O1` (stereo unspecified), the cell number change is -9.31%. The concentration at half-maximal activity (AC50) under setting [1] is 16.4 µM [rising, single point]. For the molecule `Cc1ccc(C)c(OCC(O)CN2CCC(C)CC2)c1C` (stereo unspecified), the cell number change was 7.22%. The AC50 under setting [1] is 0.259 µM [rising, partial curve, poor fit]. On to `Cc1ccc(/C=N/NC(=O)C2CC(=O)N(c3ccccc3)C2)s1` (stereo unspecified), for which the cell number change came out at 102%. The concentration at half-maximal activity (AC50) under setting [2] is 11.6 µM [rising, partial curve]. In addition, under setting [1], the AC50 was 29.1 µM [rising, single point]. For the molecule `CSc1nc(C)c(CCOCc2ccccc2)c(=O)[nH]1`, the cell number change was -43.5%. In addition, the AC50 under setting [1] was 25.9 µM [falling, partial curve]. For `O=C(Cn1c(=O)oc2cc(S(=O)(=O)N3CCCC3)ccc21)N1CCc2ccccc2C1`, the cell number change was found to be 28.3%. Under setting [1], the half-maximal activity concentration (AC50) was 29.1 µM [rising, single point]. For the molecule `O=C(O)c1ccc(N2C(=O)CC(Cc3ccccc3)C2=O)cc1` (stereo unspecified), the cell number change is -17.9%. Moreover, the AC50 under setting [1] was 0.13 µM [falling, full curve]. In the case of `O=C(OCc1nnc(-c2ccc(Br)cc2)o1)c1cncc(Br)c1`, the cell number change came to 35.3%. For the same molecule, under setting [2], the AC50 is 35.5 µM [rising, single point]. Under setting [1], the concentration at half-maximal activity (AC50) was 6.31 µM [falling, single point]. For the molecule `c1ccc(OCCN2CCOCC2)cc1`, the cell number change was determined as 2.46%. Consider `CCc1ccccc1OCC(=O)Nc1ccc(F)c(S(=O)(=O)N2CCOCC2)c1`, for which the half-maximal activity concentration (AC50) under setting [1] is 0.103 µM [falling, full curve, poor fit].

In general, AC50 refers to the concentration giving half of the maximal activity seen. A lower AC50 goes with activity at low concentration.

The values above are taken from PubChem BioAssay AID2685 (National Center for Advancing Translational Sciences (NCATS), 2010).
